Laboratory results: US9512090B2, “Tetrazolinone compound and use thereof” (Sumitomo Chemical Company, Limited, priority 2013, dated 2016)
Some entries share one result that the patent states for a list of compounds. At least one compound was matched to its structure with a doubt left.

system: barley net blotch fungus (Pyrenophora teres); assay: Test Example 3: barley net blotch control by foliar spray on potted barley; type: in vivo; conditions: 500 ppm spray on barley (NISHINOHOSHI); inoculated after 2 days; assessed after 3 + 7 days

SMILES	area of lesion spots on the treated plant relative to that on an untreated plant
Cc1cc(-c2cccc(Cl)c2)ccc1OCc1c(C)cccc1-n1nnn(C)c1=O [compound 2]	≤ 30%
Cc1cc(-c2cccc(C)c2C)ccc1OCc1c(C)cccc1-n1nnn(C)c1=O [compound 3]	≤ 30%
Cc1cc(-c2ccc(Cl)cc2Cl)ccc1OCc1c(C)cccc1-n1nnn(C)c1=O [compound 6]	≤ 30%
COc1cccc(-n2nnn(C)c2=O)c1COc1ccc(-c2ccccc2)cc1C [compound 7]	≤ 30%
COc1cccc(-n2nnn(C)c2=O)c1COc1ccc(-c2ccc(Cl)cc2)cc1C [compound 8]	≤ 30%
COc1cccc(-n2nnn(C)c2=O)c1COc1ccc(-c2cccc(Cl)c2)cc1C [compound 10]	≤ 30%
COc1cccc(-n2nnn(C)c2=O)c1COc1ccc(-c2cccc(C#N)c2)cc1C [compound 11]	≤ 30%
COc1cccc(-n2nnn(C)c2=O)c1COc1ccc(-c2ccccc2C(F)(F)F)cc1C [compound 12]	≤ 30%
COc1cccc(-n2nnn(C)c2=O)c1COc1ccc(-c2cccc(NC(C)=O)c2)cc1C [compound 13]	≤ 30%
COc1cccc(-n2nnn(C)c2=O)c1COc1ccc(-c2c(C)cccc2C)cc1C [compound 15]	≤ 30%
COc1cccc(-n2nnn(C)c2=O)c1COc1ccc(-c2cccc(C)c2)cc1C [compound 16]	≤ 30%
COc1ccc(-c2ccc(OCc3c(OC)cccc3-n3nnn(C)c3=O)c(C)c2)cc1 [compound 17]	≤ 30%
COc1cccc(-c2ccc(OCc3c(OC)cccc3-n3nnn(C)c3=O)c(C)c2)c1 [compound 18]	≤ 30%
COc1cccc(-n2nnn(C)c2=O)c1COc1ccc(-c2cc(C)ccc2C)cc1C [compound 19]	≤ 30%
COc1cccc(-n2nnn(C)c2=O)c1COc1ccc(-c2ccccc2C#N)cc1C [compound 21]	≤ 30%
Cc1cc(-c2cccc(C#N)c2)ccc1OCc1c(C2CC2)cccc1-n1nnn(C)c1=O [compound 28]	≤ 30%
Cc1ccc(-c2ccc(OCc3c(C)cccc3-n3nnn(C)c3=O)cc2C)cc1 [compound 30]	≤ 30%
Cc1cc(OCc2c(C)cccc2-n2nnn(C)c2=O)ccc1-c1ccccc1Cl [compound 31]	≤ 30%
Cc1cc(-c2ccccc2)c(C)cc1OCc1c(C)cccc1-n1nnn(C)c1=O [compound 34]	≤ 30%
COc1cccc(-n2nnn(C)c2=O)c1COc1ccc(-c2ccc(C#N)cc2)cc1C [compound 37]	≤ 30%
COc1cccc(-n2nnn(C)c2=O)c1COc1ccc(-c2cccc(C(C)=O)c2)cc1C [compound 38]	≤ 30%
COc1cccc(-n2nnn(C)c2=O)c1COc1ccc(-c2ccc(F)cc2)cc1C [compound 39]	≤ 30%
COc1cccc(-n2nnn(C)c2=O)c1COc1ccc(-c2ccc3ccccc3c2)cc1C [compound 40]	≤ 30%
Cc1cc(-c2ccc(Cl)c(Cl)c2)ccc1OCc1c(C)cccc1-n1nnn(C)c1=O [compound 41]	≤ 30%

SMILES	area of lesion spots on the treated plant relative to that on an untreated plant
COc1cccc(-n2nnn(C)c2=O)c1COc1ccc(-c2ccc(C)c(C)c2)cc1C [compound 42]	≤ 30%
COc1cccc(-n2nnn(C)c2=O)c1COc1ccc(-c2ccc(C)cc2C#N)cc1C [compound 45]	≤ 30%
Cc1cccc(-n2nnn(C)c2=O)c1COc1ccc(Oc2ccccc2)cc1 [compound 59]	≤ 30%
CCc1ccccc1Oc1ccc(OCc2c(OC)cccc2-n2nnn(C)c2=O)c(C)c1 [compound 60]	≤ 30%
Cc1cc(Oc2ccccc2)ccc1OCc1c(C2CC2)cccc1-n1nnn(C)c1=O [compound 67]	≤ 30%
COc1cccc(Oc2ccc(OCc3c(C)cccc3-n3nnn(C)c3=O)c(C)c2)c1 [compound 69]	≤ 30%
COc1ccc(Oc2ccc(OCc3c(C)cccc3-n3nnn(C)c3=O)c(C)c2)cc1 [compound 70]	≤ 30%
Cc1cc(Oc2ccc(C#N)cc2)ccc1OCc1c(C)cccc1-n1nnn(C)c1=O [compound 72]	≤ 30%
Cc1cc(Oc2cccc(C#N)c2)ccc1OCc1c(C)cccc1-n1nnn(C)c1=O [compound 73]	≤ 30%
Cc1cc(Oc2ccccc2C#N)ccc1OCc1c(C)cccc1-n1nnn(C)c1=O [compound 74]	≤ 30%
Cc1cc(Oc2ncccn2)ccc1OCc1c(C)cccc1-n1nnn(C)c1=O [compound 76]	≤ 30%
Cc1cc(OCc2ccccc2)ccc1OCc1c(C)cccc1-n1nnn(C)c1=O [compound 77]	≤ 30%
Cc1cc(N(C)c2ccccc2)ccc1OCc1c(C)cccc1-n1nnn(C)c1=O [compound 78]	≤ 30%
COC(c1ccccc1)c1ccc(OCc2c(C)cccc2-n2nnn(C)c2=O)c(C)c1 (centres unmarked) [compound 81]	≤ 30%
Cc1cc(COc2ccccc2)ccc1OCc1c(C)cccc1-n1nnn(C)c1=O [compound 83]	≤ 30%
CCCN(C)/C=N/c1ccc(OCc2c(C)cccc2-n2nnn(C)c2=O)c(C)c1 [compound 88]	≤ 30%
COc1cccc(-n2nnn(C)c2=O)c1COc1ccc(Cc2ccccc2)cc1C [compound 90]	≤ 30%
COC(=O)c1ccc(OCc2c(OC)cccc2-n2nnn(C)c2=O)c(C)c1 [compound 93]	≤ 30%
Cc1cccc(-n2nnn(C)c2=O)c1COc1ccc(C(F)(F)F)cc1 [compound 94]	≤ 30%
Cc1ccc(OCc2c(C)cccc2-n2nnn(C)c2=O)cc1 [compound 95]	≤ 30%
COC(=O)c1ccc(OCc2c(C)cccc2-n2nnn(C)c2=O)c(C)c1 [compound 96]	≤ 30%
Cc1cccc(-n2nnn(C)c2=O)c1COc1ccc(S(C)(=O)=O)cc1 [compound 97]	≤ 30%
CC(=O)Nc1ccc(OCc2c(C)cccc2-n2nnn(C)c2=O)c(C)c1 [compound 98]	≤ 30%
